# Source: the supplement of paper PMC3334620
# Over roughly 33,000 sequences, “E-score (-0.5 to 0.5)” has its median near -0.015; the highest 2% begin near 0.3. The list shows a part of the results.
# Molecular target: T1, Abf1 (UniProt P14164)
# T1 sequence: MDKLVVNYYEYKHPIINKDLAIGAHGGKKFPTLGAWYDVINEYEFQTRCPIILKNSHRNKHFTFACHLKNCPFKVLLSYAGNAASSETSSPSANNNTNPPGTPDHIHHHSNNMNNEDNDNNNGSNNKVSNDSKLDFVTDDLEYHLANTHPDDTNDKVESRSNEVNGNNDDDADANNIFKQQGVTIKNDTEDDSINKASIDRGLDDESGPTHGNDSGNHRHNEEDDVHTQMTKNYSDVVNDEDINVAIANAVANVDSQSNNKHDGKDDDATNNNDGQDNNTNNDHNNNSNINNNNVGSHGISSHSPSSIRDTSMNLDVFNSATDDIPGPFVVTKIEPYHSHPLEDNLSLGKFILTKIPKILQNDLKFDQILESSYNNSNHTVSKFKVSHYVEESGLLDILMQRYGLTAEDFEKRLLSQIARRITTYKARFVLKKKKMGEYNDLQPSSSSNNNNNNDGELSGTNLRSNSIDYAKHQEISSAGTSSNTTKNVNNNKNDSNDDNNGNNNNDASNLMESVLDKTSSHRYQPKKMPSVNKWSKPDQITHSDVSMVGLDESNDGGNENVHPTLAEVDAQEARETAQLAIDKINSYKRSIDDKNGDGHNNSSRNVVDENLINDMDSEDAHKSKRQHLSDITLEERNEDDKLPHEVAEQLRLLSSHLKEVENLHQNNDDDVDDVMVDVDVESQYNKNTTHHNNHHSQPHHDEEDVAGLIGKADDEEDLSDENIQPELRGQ
# Assay: PBM E-score (8-mer binding enrichment) (E-score (-0.5 to 0.5)); higher = stronger / more preferred TF binding
# Conditions: protein concentration: 200 nM; construct: GST-full length
# Outline: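 Detection of bound protein used fluorescent anti-GST, with scans normalised by masliner. The proteins were GST-tagged yeast transcription factors applied at about 100-200 nM to universal all-10-mer Agilent arrays made double-stranded by primer extension. Each ungapped eight-base word, pooled with its reverse complement, was scored with an E-score from the Universal PBM Analysis Suite.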
row,Sequence,PBM E-score
1,CCATATGA,0.0353
2,ATAGAGGC,-0.063
3,TATTCGCA,0.134
4,CGAACAAA,0.133
5,GTATCGAA,0.136
6,CTTTTCGA,-0.0876
7,ATCTCCTG,0.197
8,CCCACCGC,-0.25
9,GACCTCAA,-0.0678
10,CAGCGAAG,-0.223
11,TCTCTAAA,0.0546
12,GCGGCGCC,-0.00849
13,CAACCGAG,-0.0944
14,GCACGCCA,-0.243
15,ATTGTTCG,0.131
16,GCTCGAAA,-0.0348
17,GCGGGGCC,-0.0911
18,ACAGTCCG,-0.0014
19,ACCCTATG,0.0253
20,CGTATTAA,0.258
21,ACTCTCGA,-0.00599
22,AGCTAGGG,-0.309
23,CAGCCCAC,-0.111
24,AAAGCTGT,-0.0712

row,Sequence,PBM E-score
1,GCCAATAA,0.0249
2,CTTCTTAC,0.207
3,ACTAAGTC,0.142
4,TATAAAGA,0.0343
5,CCCGGCCC,-0.267
6,ACTATCGC,0.0846
7,AACCATCC,-0.129
8,AACCTACC,-0.137
9,AATACGAG,0.221
10,AATGAACG,-0.00352
11,CAGGCTCC,-0.169
12,AACAAAAT,0.0674
13,CCGCTCTA,-0.147
14,AGGAGGAC,-0.284
15,CGAACACC,-0.02
16,CATAGTTC,-0.00457
17,CTGGGGGA,-0.323
18,CAATGGGG,-0.195
19,AACCACGG,0.229
20,ATATAATC,0.126
21,GCATGGCC,-0.196
22,TCGTACGA,0.455
23,GCCTTCCC,-0.303
24,CGGCATTA,0.0689

row,Sequence,PBM E-score
1,ATTGGGCC,-0.0964
2,CCCAGCGG,-0.182
3,AGTGGAAC,-0.0559
4,CTGGGTAC,-0.097
5,AGCGAACC,-0.113
6,AGGTCACT,0.304
7,ACGGTAGG,-0.0731
8,TCCGTAGA,0.143
9,TAAACCTA,0.102
10,CAGGCTTA,-0.246
11,GATATAGA,0.0944
12,CATACGGC,0.346
13,AGGGCGCC,-0.0691
14,AAACCGTA,0.221
15,AATCATCC,0.215
16,ATTCGCTA,-0.00605
17,ATGATCTA,0.297
18,CGATAGCA,0.00986
19,CTCATCAA,0.192
20,ACGGTTGG,0.0215
21,CGACCCCA,-0.0475
22,CTCAACCA,-0.242
23,AGGCTAGA,-0.228
24,CTGTCTGC,-0.243

# Single entries from above.
# PBM E-score with CGACCCCA reads -0.0475
# PBM E-score with CGATAGCA reads 0.00986
# PBM E-score with AGGGCGCC reads -0.0691
# PBM E-score with TCCGTAGA reads 0.143

# Continued:

row,Sequence,PBM E-score
1,CCTTCTAG,-0.139
2,ACTAGGCT,-0.12
3,CACGCACC,0.0197
4,ACCAGTAC,-0.02
5,AACGCATC,-0.00058
6,AAAGATAG,-0.00204
7,CTAATGAA,0.0665
8,AAGTCTCA,-0.14
9,ACTAACAC,0.00501
10,AGTTAAGC,0.00046
11,CGCGAAAA,0.102
12,CTTGGAGA,-0.106
13,CCTAATCG,0.215
14,CTTTTGAA,0.0454
15,CAGGCCCG,-0.265
16,ACATACTG,0.0484
17,CACTCACG,-0.0286
18,AACGGAAA,0.218
19,ATAATACG,0.164
20,CGGTGCTC,0.0352
21,GTCCAGCA,-0.0732
22,AGTCTCGA,-0.199
23,CTTCTCCC,-0.177
24,CGGCGCTC,0.0722

row,Sequence,PBM E-score
1,TCGCGTAA,-0.0242
2,AGAAATCG,0.0412
3,GACTCATA,-0.0291
4,CTGATACC,0.0242
5,CACGAGCG,0.0546
6,GGACCCAC,-0.174
7,CAGTGTAA,0.162
8,GGCACAAA,-0.0041
9,GACAAAGA,0.168
10,AGCTCCGG,-0.208
11,CTACGACC,0.12
12,CACTCCTC,-0.0559
13,GAGGATGA,0.0128
14,AGACCATC,-0.195
15,CAGGTCTA,0.00166
16,AGGAGCTC,-0.229
17,AACCATTA,0.0146
18,CCGGTCTA,-0.142
19,ACGGAAGA,0.0695
20,ATACACCG,-0.118
21,ATATTATA,0.254
22,CCGTACCG,0.25
23,ATTTAGAA,0.138
24,AAGCGGCC,-0.00927

row,Sequence,PBM E-score
1,CGGCCTGA,-0.207
2,CTAGACCA,-0.194
3,CTGGTCAA,-0.112
4,AGGCGACT,-0.00342
5,CCTAAGGA,0.151
6,ACTTCGGA,-0.0162
7,AGAAAGCG,-0.038
8,CCCTATGC,-0.16
9,ATGGGTAA,-0.0977
10,GTGGCAAC,-0.197
11,CTTACTCC,-0.0554
12,ACTCCCCA,-0.125
13,AGTGTCTA,0.0728
14,CCGCCCCA,-0.136
15,CGTAATCA,0.293
16,ACTTACAA,0.134
17,AAGAGTAA,0.0442
18,ATTCCTCG,-0.0559
19,AACCGTAT,0.238
20,CTATAGTC,0.0309
21,CAACACCG,-0.157
22,AAGCTGAC,-0.134
23,CCGGCATC,-0.072
24,ATTGAAGG,-0.134

row,Sequence,PBM E-score
1,CCTGTGAC,-0.00317
2,CAAACGGC,0.0725
3,CCTTCGTC,0.0914
4,CTCCGCCC,-0.291
5,GCAGAGTA,0.0817
6,GAGTATTA,0.171
7,AATAGCGG,-0.183
8,AGCGTAGC,0.141
9,GAGATTGC,-0.126
10,AAAAGGAC,-0.128
11,AACCACTG,-0.111
12,GAGCCCGA,-0.04
13,ACCGCAGT,-0.12
14,ACCGACCC,-0.155
15,CCCTCTAC,-0.188
16,AATGATTC,0.0452
17,AGCCCGCA,-0.231
18,ACCTGAGA,-0.0303
19,TCGGAGCA,-0.0213
20,CCGAACCA,-0.231
21,AAATGCCG,0.0805
22,GTACTGAC,0.112
